Laboratory results taken from PubChem BioAssay AID504834 (National Center for Advancing Translational Sciences (NCATS), 2011).
In all, about 320,000 compounds went through this assay and about 22,000 (6.9%) were called active. Inconclusive means that the source gave no clear call. Such entries were picked first, then a sample of the others. Calls come from the whole dose curve; as a rule, active = well fitted inhibition curve with a large enough effect; inconclusive = small, poorly fitted or top-dose-only effect, or another doubt; inactive = no such curve, though single readings can be large or run the other way. Potencies of inconclusive entries are doubtful fits and often do not repeat.

assay: Primary qHTS for delayed death inhibitors of the malarial parasite plastid, 96 hour incubation; settings: P. falciparum luciferase reporter growth; series mostly up to 28.7 µM
Summary of the method: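 Compounds incubated with erythrocytes infected by luciferase-expressing P. falciparum (2% hematocrit, 0.05% parasitemia final) for 96 hours, 37 C in 5% CO2. Growth inhibition scored as decreased luciferase luminescence.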
Potency is the fitted concentration of half-maximal effect.

Structure (SMILES) | Potency
COc1ccc(Oc2cn[nH]c2-c2ccc(OCC(=O)NN)cc2O)cc1 | inconclusive: 10.4 µM [inhibitor, partial curve]
Cc1[nH]c2ccccc2c1C(=O)CSc1nc2ccccc2[nH]1 | inactive
Cc1cccc(C)c1NC(=O)CN(C)C(=O)c1ccccc1C(=O)N(C)Cc1ccccc1 | inconclusive: 18.5 µM [inhibitor, partial curve, poor fit]
CCOc1ccc(C2c3[nH]c4ccccc4c3CCN2Cc2cccn2-c2ncccn2)cc1 (stereo not drawn) | inconclusive: 13.1 µM [inhibitor, single point]
O=C(c1ccc(CS(=O)(=O)c2ccc(Br)cc2)o1)N1CCOCC1 | inconclusive: 18.5 µM [inhibitor, single point]
COc1ccc(N(C)C(=O)C2CCCN2S(=O)(=O)c2cccc3nsnc23)cc1 (stereo not drawn) | inactive
COc1ccc(N2CCN(C(=O)C3Cc4ccccc4CN3C(=O)c3ccccc3)CC2)cc1 (stereo not drawn) | inconclusive: 0.465 µM [inhibitor, full curve, poor fit]
Cc1nnc(NC(=O)Nc2ccc(Cl)c(Cl)c2)s1 | inactive
Cc1cc(NCCCn2ccnc2)n2ncc(-c3ccc(Cl)cc3)c2n1 | inactive
Cc1ccc2c(c1)S/C(=C/c1ccc[n+](C)c1)N2CCO | inactive
COc1ccc(C(=O)NNC(=O)CSc2nnnn2-c2cc(OC)cc(OC)c2)cc1 | inconclusive: 11.7 µM [inhibitor, single point]
CC(=O)c1cc(C#N)c(SCCC(C)C)nc1C | inconclusive: 10.4 µM [inhibitor, single point]
CC(C)(CNC(=O)c1sc2cc(Cl)ccc2c1Cl)N1CCOCC1 | inconclusive: 18.5 µM [inhibitor, single point]
O=C(CSc1nnnn1Cc1ccccc1)Nc1cccc(F)c1 | inactive
Nc1ccccc1-n1c(=O)n(Cc2ccccc2F)c(=O)c2[nH]cnc21 | inactive
O=C(C(=O)N1CCN(c2ccccc2)CC1)c1cn(CC(=O)N2CCCCCC2)c2ccccc12 | inconclusive: 9.28 µM [inhibitor, single point]
COCCCN1C(=O)C(=O)/C(=C(/O)c2ccccc2)C1c1ccc(N(C)C)cc1 (stereo not drawn) | inconclusive: 13.1 µM [inhibitor, single point]
Cc1cc(C)nc(/N=C(\N)N2CCCCCC2)n1 | inconclusive: 18.5 µM [inhibitor, single point]
COC(=O)c1cc(S(=O)(=O)NCC2CCN(Cc3ccc(C)cc3)CC2)cn1C | inconclusive: 18.5 µM [inhibitor, single point]
Cc1ccc(C)c(Nc2ncnc(N)c2[N+](=O)[O-])c1 | active: 2.08 µM
COCCN(CCOC)S(=O)(=O)c1ccc(C(=O)Nc2ccc([N+](=O)[O-])cc2OC)cc1 | inconclusive: 2.94 µM [inhibitor, single point]
O=S(=O)(NCCCN1CCOCC1)c1ccc(Cl)cc1 | inactive

Single values from above.
Under Potency, CC(C)(CNC(=O)c1sc2cc(Cl)ccc2c1Cl)N1CCOCC1 shows inconclusive: 18.5 µM [inhibitor, single point]
Under Potency, Cc1cccc(C)c1NC(=O)CN(C)C(=O)c1ccccc1C(=O)N(C)Cc1ccccc1 shows inconclusive: 18.5 µM [inhibitor, partial curve, poor fit]
Under Potency, O=C(c1ccc(CS(=O)(=O)c2ccc(Br)cc2)o1)N1CCOCC1 shows inconclusive: 18.5 µM [inhibitor, single point]
Under Potency, COc1ccc(N2CCN(C(=O)C3Cc4ccccc4CN3C(=O)c3ccccc3)CC2)cc1 (stereo not drawn) shows inconclusive: 0.465 µM [inhibitor, full curve, poor fit]

(more compounds)

Structure (SMILES) | Potency
Cc1ccc(N2C(=O)c3ccccc3C2Nc2ccccc2)nc1 (stereo not drawn) | active: 10.4 µM
CCOC(=O)c1cc(C#N)c(SC)nc1C | inconclusive: 1.31 µM [inhibitor, partial curve, poor fit]
CC(=O)Nc1ccc2sc(NC(=O)CN3CCOCC3)nc2c1 | inconclusive: 18.5 µM [inhibitor, single point]
Cc1oc(-c2ccc(Cl)cc2)nc1CS(=O)CC(=O)NC1CCCC1 (stereo not drawn) | inconclusive: 7.38 µM [inhibitor, single point]
COc1cc(C(=O)OCCn2c(=O)c3c(ncn3CCN(C)C)n(C)c2=O)cc(OC)c1OC | inconclusive: 18.5 µM [inhibitor, single point]
COc1ccccc1-c1c(C)oc2cc(OC(=O)c3ccco3)ccc2c1=O | inconclusive: 3.7 µM [inhibitor, partial curve, poor fit]
COc1ccc(-n2nc(C(=O)NCC(=O)N3CCN(Cc4ccccc4)CC3)c3ccccc3c2=O)c(OC)c1 | inconclusive: 10.4 µM [inhibitor, single point]
CCOc1ccc(C(=O)CCN2CCCCC2)cc1 | inactive
C=CCn1c(SCC(=O)N(CC)C2CCS(=O)(=O)C2)nnc1-c1ccccc1 (stereo not drawn) | inconclusive: 2.94 µM [inhibitor, full curve, poor fit]
Fc1ccccc1NC(=S)NCCc1ccc(Cl)cc1 | inconclusive: 18.5 µM [inhibitor, single point]
CCN(c1ccccc1)S(=O)(=O)c1ccc(C(=O)N2CC(C)CC(C)C2)cc1 (stereo not drawn) | inconclusive: 13.1 µM [inhibitor, single point]
COC(=O)C1=C(c2ccccc2OCc2ccccc2)C[C@@H]2CC[C@H]1N2C(=O)NCc1ccc(OC)c(OC)c1 | inconclusive: 2.94 µM [inhibitor, full curve]
Cc1[nH]c2ccccc2c1C(=O)COC(=O)C1CC(O)CN1S(=O)(=O)c1ccc(Cl)cc1 (stereo not drawn) | inconclusive: 0.522 µM [inhibitor, full curve, poor fit]
C[Se]CCC(N)C(=O)O (stereo not drawn) | inconclusive: 1.69 µM [inhibitor, partial curve]
CCOc1ccc(OCc2cccc(C(=O)N/N=C/c3cccnc3)c2)cc1 | inactive
COc1ccc(C(=O)Nc2ccc(S(=O)(=O)Nc3nccc(C)n3)cc2)cc1[N+](=O)[O-] | inactive
CCn1c(SCC(=O)Nc2nc(C)cs2)nnc1-c1ccco1 | inconclusive: 9.28 µM [inhibitor, partial curve, poor fit]
COc1cc(S(=O)(=O)n2nc(C)cc2C)c(OC)cc1Cl | inconclusive: 10.4 µM [inhibitor, single point]
CCOC(=O)c1cc(-c2ccccc2)n(CC(=O)Nc2ccc(OCC)cc2)c1C | inconclusive: 4.65 µM [inhibitor, partial curve, poor fit]
Cc1cccc(Cn2nc(C)c(NC(=O)c3ccc(F)cc3)c2C)c1 | inconclusive: 6.57 µM [inhibitor, partial curve, poor fit]
COc1ccc(-n2nc([N+](=O)[O-])c(=NCCc3ccc(Cl)cc3)n2O)cc1 | inconclusive: 0.185 µM [inhibitor, full curve, poor fit]
